From patent publication US20210046154A1
No constants are given. Whether binding was seen depends on the method and setting. In cells and extracts the contact can be indirect. Some binding calls cover weakened binding; strength is not graded here.

Sequences of proteins named here, by UniProt entry; tags and fusion partners are left off.
UniProt P29351: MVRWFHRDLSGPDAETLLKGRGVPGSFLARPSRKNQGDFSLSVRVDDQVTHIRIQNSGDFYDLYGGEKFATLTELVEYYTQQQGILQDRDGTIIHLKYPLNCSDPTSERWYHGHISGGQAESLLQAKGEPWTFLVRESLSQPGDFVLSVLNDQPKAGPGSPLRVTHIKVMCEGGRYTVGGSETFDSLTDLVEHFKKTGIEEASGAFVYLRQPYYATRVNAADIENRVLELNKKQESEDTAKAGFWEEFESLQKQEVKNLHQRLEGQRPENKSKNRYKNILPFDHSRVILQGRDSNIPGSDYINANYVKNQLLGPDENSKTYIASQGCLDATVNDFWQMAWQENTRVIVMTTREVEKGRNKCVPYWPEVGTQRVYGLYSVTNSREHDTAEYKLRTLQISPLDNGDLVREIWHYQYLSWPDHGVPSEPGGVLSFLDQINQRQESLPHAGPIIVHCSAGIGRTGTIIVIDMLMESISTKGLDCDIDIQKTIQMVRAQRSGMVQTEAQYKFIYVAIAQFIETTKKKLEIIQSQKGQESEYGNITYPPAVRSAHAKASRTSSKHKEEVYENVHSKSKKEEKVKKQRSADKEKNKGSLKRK

T1: mouse Siglec G (mouse) (UniProt Q80ZE3)
T1 sequence (looked up): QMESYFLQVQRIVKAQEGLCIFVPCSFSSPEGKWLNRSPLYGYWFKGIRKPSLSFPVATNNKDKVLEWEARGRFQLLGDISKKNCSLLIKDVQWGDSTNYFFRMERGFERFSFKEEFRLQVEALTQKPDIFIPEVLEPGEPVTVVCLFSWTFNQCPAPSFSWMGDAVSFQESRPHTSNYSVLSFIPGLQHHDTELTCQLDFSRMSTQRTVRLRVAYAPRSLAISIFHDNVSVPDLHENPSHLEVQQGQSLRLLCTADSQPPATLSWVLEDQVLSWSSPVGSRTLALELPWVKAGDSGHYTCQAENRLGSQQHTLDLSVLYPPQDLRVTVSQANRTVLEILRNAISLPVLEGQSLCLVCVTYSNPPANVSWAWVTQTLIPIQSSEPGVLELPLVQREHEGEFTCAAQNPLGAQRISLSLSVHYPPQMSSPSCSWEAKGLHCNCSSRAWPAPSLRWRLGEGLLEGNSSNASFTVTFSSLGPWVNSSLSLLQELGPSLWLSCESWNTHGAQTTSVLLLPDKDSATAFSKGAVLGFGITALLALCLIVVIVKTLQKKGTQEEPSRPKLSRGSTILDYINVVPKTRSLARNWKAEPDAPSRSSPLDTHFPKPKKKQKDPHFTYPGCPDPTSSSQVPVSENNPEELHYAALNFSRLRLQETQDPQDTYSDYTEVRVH

B1: mouse Siglec G (receptor, UniProt Q80ZE3 18-688, looked up)
chain: T1 sequence (looked up)

Tests used:
[1] = target: T1, mouse Siglec G (mouse); assay: Co-immunoprecipitation: Siglec G precipitated from CD24-/- spleen cells stimulated for 30 minutes with 1 µg/ml CD24Fc, control Fc or PBS; Western blot with anti-SHP-1
[2] = target: SHP-1 (UniProt P29351); assay: co-immunoprecipitation of Siglec G from CD24-/- spleen cells stimulated with 1 µg/ml CD24Fc, probed with anti-SHP-1 (FIG. 5C)
[3] = target: SHP-1 (UniProt P29351); assay: co-immunoprecipitation of Siglec G from CD24-/- spleen cells stimulated with CD24Fc, probed with anti-SHP-1

Row | Molecule | binding [1] | binding [2] | binding [3]
1 | SHP-1 (from UniProt P29351 1-595) (enzyme) | binds |  | 
2 | B1 |  | binds | binds
